Paper PMC7913688, “Human Rev1 relies on insert-2 to promote selective binding and accurate replication of stabilized G-quadruplex motifs”
For at least one entry, the source does not settle the construct or the ends of the probe. For some assays here: At least one verdict rests on a figure or table, not on a statement of the authors. Protein sequences can lack the tags named with them.

Legend:
[1] = target: T1, hRev1 330-833 polymerase core (human) (UniProt Q9UBZ9); assay: fluorescence polarization; details: Fluorescence polarization: 1 nM FAM-DNA, 100 mM KCl or LiCl, DNA annealed in 50 mM HEPES pH 7.5, temperature not stated, recombinant protein, residues 330-833
T1 sequence (looked up): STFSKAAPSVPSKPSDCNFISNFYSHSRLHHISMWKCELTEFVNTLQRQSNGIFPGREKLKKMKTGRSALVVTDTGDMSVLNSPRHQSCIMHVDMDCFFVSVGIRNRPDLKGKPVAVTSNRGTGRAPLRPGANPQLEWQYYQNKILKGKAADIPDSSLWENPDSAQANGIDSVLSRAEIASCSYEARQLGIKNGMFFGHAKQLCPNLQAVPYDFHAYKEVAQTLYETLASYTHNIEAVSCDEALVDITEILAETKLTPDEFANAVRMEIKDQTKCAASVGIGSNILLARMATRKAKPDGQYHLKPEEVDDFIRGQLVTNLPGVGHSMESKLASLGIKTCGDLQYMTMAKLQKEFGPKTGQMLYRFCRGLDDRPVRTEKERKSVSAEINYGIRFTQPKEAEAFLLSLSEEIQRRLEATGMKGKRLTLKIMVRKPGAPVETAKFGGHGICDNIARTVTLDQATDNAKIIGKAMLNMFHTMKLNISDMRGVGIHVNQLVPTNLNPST

[2] = target: T2, hRev1 full-length (human) (UniProt Q9UBZ9); assay: HPG arginine footprinting-MS; details: 100 mM KCl, Footprinting: 50 mM HEPES pH 7.5, 100 mM KCl, 10 uM protein, 30 uM ssDNA, room temperature, recombinant protein, residues 1-1251, label: 5'-FAM, folded or branched DNA
T2 sequence (looked up): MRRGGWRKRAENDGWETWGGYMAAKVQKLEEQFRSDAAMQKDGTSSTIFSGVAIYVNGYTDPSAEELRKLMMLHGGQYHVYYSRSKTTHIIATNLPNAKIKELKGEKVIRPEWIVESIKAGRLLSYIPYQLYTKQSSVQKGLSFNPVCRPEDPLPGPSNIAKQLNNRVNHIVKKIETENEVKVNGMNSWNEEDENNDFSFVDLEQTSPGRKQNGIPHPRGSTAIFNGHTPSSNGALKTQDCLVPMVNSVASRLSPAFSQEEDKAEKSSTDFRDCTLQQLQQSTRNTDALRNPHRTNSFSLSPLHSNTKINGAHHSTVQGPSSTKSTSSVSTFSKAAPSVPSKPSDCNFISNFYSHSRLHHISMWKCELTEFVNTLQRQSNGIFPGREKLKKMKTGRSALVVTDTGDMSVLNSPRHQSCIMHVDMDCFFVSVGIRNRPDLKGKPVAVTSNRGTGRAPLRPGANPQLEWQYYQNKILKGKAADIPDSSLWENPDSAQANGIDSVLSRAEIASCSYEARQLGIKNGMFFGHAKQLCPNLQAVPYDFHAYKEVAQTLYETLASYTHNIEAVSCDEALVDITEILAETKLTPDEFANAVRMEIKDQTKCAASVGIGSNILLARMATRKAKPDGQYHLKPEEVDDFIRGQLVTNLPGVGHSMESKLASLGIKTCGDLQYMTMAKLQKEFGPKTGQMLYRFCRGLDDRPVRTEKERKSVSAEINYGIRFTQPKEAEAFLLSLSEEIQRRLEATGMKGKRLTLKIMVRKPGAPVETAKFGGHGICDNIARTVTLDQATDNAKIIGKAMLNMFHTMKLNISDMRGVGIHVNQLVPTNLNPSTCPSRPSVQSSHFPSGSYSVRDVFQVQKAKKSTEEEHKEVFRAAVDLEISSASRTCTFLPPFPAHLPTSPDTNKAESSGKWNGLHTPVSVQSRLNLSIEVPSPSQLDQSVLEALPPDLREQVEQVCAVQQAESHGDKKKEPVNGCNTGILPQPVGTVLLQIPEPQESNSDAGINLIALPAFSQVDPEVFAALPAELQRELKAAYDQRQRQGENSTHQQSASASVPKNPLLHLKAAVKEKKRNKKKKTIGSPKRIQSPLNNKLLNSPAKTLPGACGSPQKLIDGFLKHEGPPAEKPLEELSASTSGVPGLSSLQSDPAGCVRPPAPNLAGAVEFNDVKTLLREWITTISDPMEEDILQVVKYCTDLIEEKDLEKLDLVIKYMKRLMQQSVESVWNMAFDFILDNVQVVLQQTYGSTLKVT

[3] = 100 mM LiCl, label: 5'-FAM, folded or branched DNA
[4] = 100 mM KCl, label: 5'-FAM on template

Sequence | Kd [1, 3] [µM] | Kd [1, 4] [µM] | also measured
AGGGGCGGGCGCTTTAGGAAAAGGGCGGGTTATGAGATGAT [Bcl2 1245 ss G4] | 0.2 |  | 
TGGTTGGTGTGGTTGGTATGAGATGAT [TBA ss G4] |  |  | binding result ([2]; label not stated, R458, R618, R696 protected): binds
AGGGCGGTGTGGGAAGAGGGAATATGAGATGAT [KRAS 22RT ss G4] | 0.25 |  | 
TGCTTGCTGTGCTTGCTATGAGATGAT / ATCATCTCATA [Non-G4 TBA primer-template] |  | 0.27 | 
AGGGCGGGGCCGGGGAGGGTATGAGATGAT [Rev1-prom ss G4] | 0.18 |  | 
AGGGAGGGTGGGAAGGGTTATGAGATGAT [Myc 2/11 ss G4] | 0.09 |  | 
TTGCGTTAGCGTTAGCGTTAGCGATATGAGATGAT / ATCATCTCATA [Non-G4 Telo-4 primer-template] |  | 1.6 | 
TTGGGTTAGGGTTAGGGTTAGGGATATGAGATGAT [hTelo-4 ss G4] |  |  | Kd ([1]; 100 mM LiCl (text: 634 +/- 105), label: 5'-FAM, folded or branched DNA): 0.63 µM
AGCGTGCGTAGCGTGCGTTATGAGATGAT / ATCATCTCATA [Non-G4 Myc primer-template] |  | 0.77 | 
AGGGTGGGTAGGGTGGGTTATGAGATGAT [Myc 14/23 ss G4] | 0.22 |  | binding result ([2]; ss-Myc G4 (14/23 and label not stated), R436, R458, R618, R742, R760 protected): binds
